Here are results for one substance from paper doi:10.1101/2025.05.12.653341.

By UniProt entry, the sequences of proteins in these tests, tags left out.
UniProt P05412: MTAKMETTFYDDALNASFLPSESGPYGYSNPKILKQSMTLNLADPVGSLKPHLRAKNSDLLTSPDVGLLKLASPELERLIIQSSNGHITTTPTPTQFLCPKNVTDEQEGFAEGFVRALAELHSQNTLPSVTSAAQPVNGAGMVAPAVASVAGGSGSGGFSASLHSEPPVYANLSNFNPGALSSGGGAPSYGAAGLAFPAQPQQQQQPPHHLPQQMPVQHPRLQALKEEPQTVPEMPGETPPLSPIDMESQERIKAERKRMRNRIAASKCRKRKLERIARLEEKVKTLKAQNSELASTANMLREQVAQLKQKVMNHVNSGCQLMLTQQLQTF

This experiment addresses T1, ZMAT3-3xFLAG-2xHA (UniProt Q9HA38).
T1 sequence: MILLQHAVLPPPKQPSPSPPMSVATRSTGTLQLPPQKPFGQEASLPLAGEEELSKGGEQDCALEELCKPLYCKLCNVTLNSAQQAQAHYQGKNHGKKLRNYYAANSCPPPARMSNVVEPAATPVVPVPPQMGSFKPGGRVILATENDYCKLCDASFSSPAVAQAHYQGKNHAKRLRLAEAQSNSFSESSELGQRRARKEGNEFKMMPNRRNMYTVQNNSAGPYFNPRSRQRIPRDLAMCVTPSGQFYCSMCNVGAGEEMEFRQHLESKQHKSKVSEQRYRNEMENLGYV
Description: affinity purification with mass spectrometry; anti-FLAG M2 magnetic beads, whole cell lysates of untreated or doxycycline-treated ZMAT3-FLAG-HA HCT116 cells; 10 mM Tris/Cl pH 7.5, 150 mM NaCl, 0.5 mM EDTA, 0.5 % NP40; overnight at 4°C; beads processed after washing without elution.

No constants are given. Whether binding was seen depends on the method and setting. In cells and extracts the contact can be indirect. These calls come from enrichment with a bait or labelling near it, and not all partners need be listed. Where a sequence is shown, tags or fusion partners need not be part of it.

Regarding JUN (c-Jun) (from UniProt P05412 1-331), the binding result was “binds”.
